Record: PubChem BioAssay AID493246 (Drosophila RNAi Screening Center, 2011)
Assay: 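Identify essential fly genes by loss of cell viability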 (primary screen). System: Drosophila Kc and S2R+ cells. Knock-down reagent: long dsRNA against Drosophila genes. Measured: 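Cell number per well after knock-down, printed as raw plate values; calls were based on per-plate z-scores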. Direction: Kc cell number and S2R+ cell number: higher = more cells remaining. Rule for the call: 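Active when the per-plate z-score of cell number is 3 or more in the direction of fewer cells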.
The screen tested about 21,000 reagents; this is a random part of those that have a named target and a result. Of all reagents, 429 (2%) got an active call. 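Values are raw and not normalised between plates; calls rest on per-plate z-scores that were not deposited.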 A number with no mark means an inactive call. The numbers tell different reagents against one gene apart. A plus sign joins genes that one reagent is predicted to hit. Not stated in the record: the amount of reagent, the time to read-out.

Gene | reagent no. | Kc cell number, rep 1 | Kc cell number, rep 2 | S2R+ cell number, rep 1 | S2R+ cell number, rep 2
tty (GeneID 33109) | 1 | 1.64e6 | 1.63e6 | 1.04e6 | 1.19e6
Dyb (GeneID 36362) | 1 | 1.50e6 | 1.78e6 | 1.06e6 | 1.22e6
CG4301 (GeneID 32610) | 1 | 1.67e6 | 1.61e6 | 1.09e6 | 1.16e6
CG43689 (GeneID 31353) | 1 | 1.13e6 (active) | 1.27e6 | 5.85e5 | 6.64e5
lectin-33A (GeneID 53516) | 1 | 1.47e6 | 1.56e6 | 1.20e6 | 1.31e6
CG7069 (GeneID 42621) | 1 | 1.49e6 | 1.60e6 | 1.14e6 | 1.17e6
CG7872 (GeneID 32493) | 1 | 5.69e5 | – | 8.43e5 | –
CG15423 (GeneID 33616) | 1 | 1.62e6 | 1.52e6 | 1.18e6 | 1.35e6
mi (GeneID 37723) | 1 | 1.39e6 | 1.44e6 | 1.05e6 | 1.12e6
TTLL1A (GeneID 32704) | 1 | 1.45e6 | 1.52e6 | 1.00e6 | 1.14e6
CG5004 (GeneID 32698) | 1 | 1.56e6 | 1.62e6 | 1.09e6 | 1.30e6
CG5004 (GeneID 32698) | 2 | 1.75e6 | 1.78e6 | 1.18e6 | 1.37e6
CG5004 (GeneID 32698) | 3 | 1.20e6 (active) | 1.16e6 | 6.73e5 | 7.93e5
CG10336 (GeneID 35122) | 1 | 1.25e6 | 1.31e6 | 1.22e6 | 1.27e6
bnk (GeneID 43687) | 1 | 1.50e6 | 1.60e6 | 1.08e6 | 1.19e6
Osi15 (GeneID 40771) | 1 | 1.75e6 | 1.87e6 | 1.30e6 | 1.44e6
CG2852 (GeneID 37591) | 1 | 1.64e6 | 1.72e6 | 1.25e6 | 1.33e6
Dek (GeneID 47906) | 1 | 1.41e6 | 1.43e6 | 1.04e6 | 1.09e6
Stt3B (GeneID 43005) | 1 | 1.68e6 | 1.52e6 | 9.83e5 | 1.16e6
La (GeneID 35305) | 1 | 1.57e6 | 1.73e6 | 1.36e6 | 3.40e5
CG14036 (GeneID 33735) | 1 | 1.57e6 | 1.48e6 | 1.15e6 | 1.36e6
CG42821 + CG42822 | 1 | 1.37e6 | 1.49e6 | 1.04e6 | 1.15e6
CG42821 + CG42822 | 2 | 1.44e6 | 1.45e6 | 1.02e6 | 1.10e6
KrT95D (GeneID 42843) | 1 | 1.46e6 | 1.50e6 | 1.15e6 | 1.19e6
CG15721 (GeneID 32247) | 1 | 1.75e6 | 1.63e6 | 1.06e6 | 1.19e6
IntS11 (GeneID 43506) | 1 | 6.04e5 | – | 7.86e5 | –
RpL5 (GeneID 3355124) | 1 | 1.13e6 | 1.18e6 | 6.63e5 | 3.19e5
Sin3A (GeneID 36382) | 1 | 1.18e6 | 1.18e6 | 7.52e5 | 8.60e5
CG13721 (GeneID 38556) | 1 | 1.35e6 | 1.41e6 | 1.14e6 | 1.21e6
nito (GeneID 35756) | 1 | 1.46e6 | 1.54e6 | 9.90e5 | 1.13e6
Kua (GeneID 35300) | 1 | 1.52e6 | 1.61e6 | 1.28e6 | 3.00e5
CG15120 (GeneID 37248) | 1 | 1.50e6 | 1.56e6 | 1.07e6 | 1.21e6
Sgf11 (GeneID 40035) | 1 | 1.49e6 | 1.61e6 | 1.40e6 | 1.56e6
CG14330 (GeneID 42102) | 1 | 1.24e6 | 1.28e6 | 1.17e6 | 1.30e6
CG17597 (GeneID 35140) | 1 | 1.41e6 | 1.45e6 | 1.25e6 | 1.26e6
CG6830 (GeneID 41408) | 1 | 1.63e6 | 1.77e6 | 1.26e6 | 1.35e6
Ir85a (GeneID 41052) | 1 | 1.35e6 | 1.50e6 | 1.28e6 | 1.36e6
CG13983 (GeneID 33875) | 1 | 1.67e6 | 1.63e6 | 1.26e6 | 1.47e6
CG13502 (GeneID 37518) | 1 | 1.65e6 | 1.77e6 | 1.28e6 | 4.40e5
ninaG (GeneID 41369) | 1 | 1.58e6 | 1.65e6 | 1.36e6 | 1.42e6
